From patent US20230120270A1
Results are given in words; binding and its absence hold for the method and conditions named. Binding seen in cells or lysates may run through a third protein. Some binding calls cover weakened binding; strength is not graded here.

What was measured:
Light chain of I0 [1] = test: co-expression of heavy and light chain (I/D-1), LC-MS of the product; √ = mispaired molecule detected
Light chain of I0 [2] = test: co-expression, LC-MS of the product

binding (Light chain of I0 [1]): binds
binding (Light chain of I0 [2]): binds
Substance: Heavy chain of D0 (from UniProt P0DOX5 1-449)
